No constants are given. Whether binding was seen depends on the method and setting. For some of these results: In cells and extracts the contact can be indirect. Some results given as binding are weak or reduced against the parent protein; the word gives no strength. For some of these results: Sequences can lack the tags named with a protein.

Amino acid sequences for entries named in this document (tags omitted). A change or cut given only in a name is not applied to a line headed by its entry.
UniProt P70336: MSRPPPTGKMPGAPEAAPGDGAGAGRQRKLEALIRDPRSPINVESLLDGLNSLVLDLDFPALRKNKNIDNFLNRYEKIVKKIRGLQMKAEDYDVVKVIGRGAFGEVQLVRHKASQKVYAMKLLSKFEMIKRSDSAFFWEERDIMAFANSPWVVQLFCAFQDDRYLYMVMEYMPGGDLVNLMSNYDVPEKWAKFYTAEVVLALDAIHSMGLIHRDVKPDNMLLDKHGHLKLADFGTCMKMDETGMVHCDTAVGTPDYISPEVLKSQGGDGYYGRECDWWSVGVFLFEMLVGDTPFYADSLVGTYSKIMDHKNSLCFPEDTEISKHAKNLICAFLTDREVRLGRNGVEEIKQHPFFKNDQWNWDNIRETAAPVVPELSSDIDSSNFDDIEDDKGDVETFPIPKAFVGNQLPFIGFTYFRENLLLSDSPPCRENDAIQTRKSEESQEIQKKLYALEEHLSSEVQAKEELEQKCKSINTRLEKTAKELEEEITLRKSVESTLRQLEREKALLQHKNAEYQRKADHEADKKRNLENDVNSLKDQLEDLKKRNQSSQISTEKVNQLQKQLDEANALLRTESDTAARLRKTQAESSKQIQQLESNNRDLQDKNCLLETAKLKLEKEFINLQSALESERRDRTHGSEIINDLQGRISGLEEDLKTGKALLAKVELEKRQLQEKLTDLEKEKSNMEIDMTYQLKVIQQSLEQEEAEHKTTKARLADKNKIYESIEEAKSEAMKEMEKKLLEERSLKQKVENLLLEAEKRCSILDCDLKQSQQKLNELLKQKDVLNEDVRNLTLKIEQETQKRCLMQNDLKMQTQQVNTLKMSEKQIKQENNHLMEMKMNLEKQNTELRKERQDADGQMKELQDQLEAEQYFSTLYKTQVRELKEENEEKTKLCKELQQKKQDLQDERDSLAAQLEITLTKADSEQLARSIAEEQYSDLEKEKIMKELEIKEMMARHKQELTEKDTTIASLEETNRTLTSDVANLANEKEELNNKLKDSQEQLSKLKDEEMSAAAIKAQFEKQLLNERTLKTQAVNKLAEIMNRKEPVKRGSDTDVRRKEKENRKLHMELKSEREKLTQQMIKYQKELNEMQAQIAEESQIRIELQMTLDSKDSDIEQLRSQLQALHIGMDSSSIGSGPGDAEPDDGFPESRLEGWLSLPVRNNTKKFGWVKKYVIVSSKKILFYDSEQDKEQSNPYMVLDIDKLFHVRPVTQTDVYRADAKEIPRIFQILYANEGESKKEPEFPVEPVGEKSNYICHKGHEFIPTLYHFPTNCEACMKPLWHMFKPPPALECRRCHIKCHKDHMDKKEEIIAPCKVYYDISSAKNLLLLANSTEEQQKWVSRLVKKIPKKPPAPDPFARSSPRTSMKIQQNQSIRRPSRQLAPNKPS

The source of these data is US20040191240A1, “Composition and method for nerve regeneration” (priority 2003, published 2004).

Assay [1] concerns the target endogenous p75 of mouse post-natal cerebellum / cerebellar neurons (mouse) (UniProt Q9Z0W1). The assay is described as follows: co-immunoprecipitation (FIG. 11C).
Assay [2] concerns the target amino-terminally FLAG-tagged human p75 (human) (UniProt P08138). Put plainly: co-immunoprecipitation with anti-FLAG antibody from 293T cells transfected with FLAG-p75 and HA-RhoA.
The target is the same in assay [3]. Put plainly: co-immunoprecipitation from transfected 293T cells (FIG. 6A).
For assay [4] the target is unchanged. The assay is described as follows: co-immunoprecipitation from N1E-115 cells transfected with FLAG-p75; interaction enhanced by Nogo peptide (4 uM) and MAG-Fc (25 ug/ml).
Assay [5] addresses endogenous Rho-kinase of differentiating N1E-115 cells (UniProt P70336). Put plainly: co-immunoprecipitation of endogenous proteins from differentiating N1E-115 cells (DMSO).
For assay [6] the target is unchanged. Put plainly: co-immunoprecipitation of endogenous proteins (FIG. 17C).
Assay [7] has as its target T1, GST-p75 ICD (rat) (UniProt P07174).
T1 sequence: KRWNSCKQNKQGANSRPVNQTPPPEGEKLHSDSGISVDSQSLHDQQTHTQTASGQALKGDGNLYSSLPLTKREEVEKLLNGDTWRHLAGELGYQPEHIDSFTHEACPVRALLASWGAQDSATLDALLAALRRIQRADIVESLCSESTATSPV
Put plainly: precipitation of GST-p75 ICD and its deletion mutants with recombinant Rho GDI; results for the single mutants not told.

B1: endogenous Nogo receptor of P9 cerebellum (receptor, UniProt Q99PI8 27-447, looked up)
chain: CPGACVCYNEPKVTTSCPQQGLQAVPTGIPASSQRIFLHGNRISHVPAASFQSCRNLTILWLHSNALARIDAAAFTGLTLLEQLDLSDNAQLHVVDPTTFHGLGHLHTLHLDRCGLRELGPGLFRGLAALQYLYLQDNNLQALPDNTFRDLGNLTHLFLHGNRIPSVPEHAFRGLHSLDRLLLHQNHVARVHPHAFRDLGRLMTLYLFANNLSMLPAEVLMPLRSLQYLRLNDNPWVCDCRARPLWAWLQKFRGSSSEVPCNLPQRLADRDLKRLAASDLEGCAVASGPFRPIQTSQLTDEELLSLPKCCQPDAADKASVLEPGRPASAGNALKGRVPPGDTPPGNGSGPRHINDSPFGTLPSSAEPPLTALRPGGSEPPGLPTTGPRRRPGCSRKNRTRSHCRLGQAGSGASGTGDAEGS
Turning to B1, in assay [1], the binding entry is reported as “binds”.

B2: endogenous Rho GDI of 293T cells (protein)
chain: AEQEPTAEQLAQIAAENEEDEHSVNYKPPAQKSIQEIQELDKDDESLRKYKEALLGRVAVSADPNVPNVVVTGLTLVCSSAPGPLELDLTGDLESFKKQSFVLKEGVEYRIKISFRVNREIVSGMKYIQHTYRKGVKIDKTDYMVGSYGPRAEEYEFLTPVEEAPKGMLARGSYSIKSRFTDDDKTDHLSWEWNLTIKKDWKD
As for B2, the binding entry in assay [2] and in assay [3] was “binds” in each case.

B3: endogenous Rho GDI of mouse cerebellar neurons and of N1E-115 cells (protein, UniProt Q99PT1 2-204, looked up)
chain: AEQEPTAEQLAQIAAENEEDEHSVNYKPPAQKSIQEIQELDKDDESLRKYKEALLGRVAVSADPNVPNVIVTRLTLVCSTAPGPLELDLTGDLESFKKQSFVLKEGVEYRIKISFRVNREIVSGMKYIQHTYRKGVKIDKTDYMVGSYGPRAEEYEFLTPMEEAPKGMLARGSYNIKSRFTDDDKTDHLSWEWNLTIKKEWKD
Take B3: in assay [4], the binding result is “binds”.

B4: endogenous p21 of differentiating N1E-115 cells (protein, UniProt P39689 2-159, looked up)
chain: SNPGDVRPVPHRSKVCRCLFGPVDSEQLRRDCDALMAGCLQEARERWNFDFVTETPLEGNFVWERVRSLGLPKVYLSPGSRSRDDLGGDKRPSTSSALLQGPAPEDHVALSLSCTLVSERPEDSPGGPGTSQGRKRRQTSLTDFYHSKRRLVFCKRKP
For B4, the binding result in assay [5] and in assay [6] was “binds” in each case.

B5: recombinant Rho GDI (from pGEX-GST-Rho GDI, GST moiety removed) (protein)
chain: MAEQEPTAEQLAQIAAENEEDEHSVNYKPPAQKSIQEIQELDKDDESLRKYKEALLGRVAVSADPNVPNVVVTGLTLVCSSAPGPLELDLTGDLESFKKQSFVLKEGVEYRIKISFRVNREIVSGMKYIQHTYRKGVKIDKTDYMVGSYGPRAEEYEFLTPVEEAPKGMLARGSYSIKSRFTDDDKTDHLSWEWNLTIKKDWKD
B5: the binding result in assay [7] is reported as “binds”.
